Test results: article PMC10536199
These are yes or no findings as the source states them, for the method shown. Binding seen in cells or lysates may run through a third protein. Some entries that bind do so weakly or less than the wild type.

Amino acid sequences for entries named in this document (tags omitted). Residues count along the entry.
UniProt Q8WUM4: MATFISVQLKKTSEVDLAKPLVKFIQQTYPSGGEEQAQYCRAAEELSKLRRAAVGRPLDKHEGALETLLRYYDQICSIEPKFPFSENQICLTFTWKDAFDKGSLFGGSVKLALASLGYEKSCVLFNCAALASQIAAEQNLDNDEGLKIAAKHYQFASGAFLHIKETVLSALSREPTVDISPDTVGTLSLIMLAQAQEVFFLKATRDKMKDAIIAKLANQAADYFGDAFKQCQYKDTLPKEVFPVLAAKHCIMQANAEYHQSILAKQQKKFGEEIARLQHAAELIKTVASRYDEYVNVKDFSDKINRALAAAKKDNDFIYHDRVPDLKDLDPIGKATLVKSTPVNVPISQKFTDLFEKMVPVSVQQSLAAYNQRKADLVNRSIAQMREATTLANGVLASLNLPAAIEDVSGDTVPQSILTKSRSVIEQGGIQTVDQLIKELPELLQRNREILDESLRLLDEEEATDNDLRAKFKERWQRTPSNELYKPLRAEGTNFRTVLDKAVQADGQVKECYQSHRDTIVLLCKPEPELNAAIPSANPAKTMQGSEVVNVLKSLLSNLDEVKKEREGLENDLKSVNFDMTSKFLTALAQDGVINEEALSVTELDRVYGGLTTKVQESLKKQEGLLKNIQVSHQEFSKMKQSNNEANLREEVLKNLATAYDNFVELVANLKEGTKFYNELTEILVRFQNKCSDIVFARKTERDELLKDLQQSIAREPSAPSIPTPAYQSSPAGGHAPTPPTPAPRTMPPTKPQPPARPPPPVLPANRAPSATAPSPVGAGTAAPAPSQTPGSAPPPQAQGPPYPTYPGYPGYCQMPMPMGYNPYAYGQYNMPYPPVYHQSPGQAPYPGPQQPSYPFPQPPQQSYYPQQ
UniProt P13500, residues 24-99: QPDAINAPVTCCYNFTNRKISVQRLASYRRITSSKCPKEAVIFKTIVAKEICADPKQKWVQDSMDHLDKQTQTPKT

Target: 3HA-Alix (ALG-2-interacting protein X) (human) (UniProt Q8WUM4)
Experiment: co-IP; HEK293T cells co-transfected, harvested after 48 h; lysed in 50 mM Tris, 150 mM NaCl, 2 mM EDTA, 3% glycerol, 1% NP-40, sonicated; anti-HA or anti-Flag antibody 3 h at 4 °C, protein A-agarose 3 h at 4 °C, 6 washes; Western blotting; also in control and Alix knockdown cells, and with or without co-expressed CCL2

With “3Flag-CCL2 (24-99 aa), mature human CCL2 (from UniProt P13500 24-99)” as the substance, how does the binding read?
The binding was “binds”.
